Measured values: PubChem BioAssay AID270 (DTP/NCI, 2004)
The list does not hold the whole screen: it gathers tests that were run many times, whatever their T/C, doses with no T/C, and many T/C values between a quarter and a half above the control. Further doses and runs are listed elsewhere. T/C gives the treated animals as a percentage of the vehicle group. Schedule codes are those of the source, taken here to give the interval after Q, in days (D) or hours (H), and the number of doses after X. Some doses have a count of surviving animals in place of a T/C: the source holds a T/C of zero for them, seemingly a mark for toxic or unscored doses. Some doses without a T/C left all or most animals alive at the check, yet need not have been tolerated: the source hardly ever lists a survival T/C far under the control, and the zero likely stands for such cases as well. Survivors were counted at the toxicity check, usually on the fifth day, unless a day is given; later deaths do not show. Some doses were run more than once; the values are given in rising order. Marks such as (2×) give the number of equal values in this list. Where survival is the endpoint, this PubChem deposit counts one and a half times the control or more as active, and values a quarter to a half above the control carry no call in these data; other NCI protocols may use other cut-offs. Some T/C values are followed by the survivors on the day toxicity was checked, most often the fifth; without a count, all were alive then.

Tested on: BDF1 mice, s.c. Lewis lung carcinoma, T/C %
Experiment: NCI In Vivo Anticancer Drug Screen. Data for tumor model Lewis Lung Carcinoma (subcutaneous) in B6D2F1 (BDF1) mice
Procedure, shortened: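 Tumor-bearing mice were treated with test compound, and either survival or tumor size was recorded. Values are the treated-group measurement divided by that of the vehicle-treated control group.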

[1] = T/C endpoint: median survival time, dose: 40.0 mg/kg/injection, schedule: Q01DX001 (ip), vehicle: Klucel (hydroxypropylcellulose) (HPC), higher T/C = longer survival
[2] = T/C endpoint: median survival time, dose: 50.0 mg/kg/injection, schedule: Q01DX009 (ip), vehicle: Klucel (hydroxypropylcellulose) (HPC), higher T/C = longer survival
[3] = T/C endpoint: median survival time, dose: 100.0 mg/kg/injection, schedule: Q01DX009 (ip), vehicle: Klucel (hydroxypropylcellulose) (HPC), higher T/C = longer survival
[4] = T/C endpoint: median survival time, dose: 25.0 mg/kg/injection, schedule: Q01DX009 (ip), vehicle: Klucel (hydroxypropylcellulose) (HPC), higher T/C = longer survival
[5] = T/C endpoint: median survival time, dose: 50.0 mg/kg/injection, schedule: Q01DX009 (ip), vehicle: saline with Tween-80, higher T/C = longer survival

CN(N=O)C(=O)N[C@@H](C=O)[C@@H](O)[C@H](O)[C@H](O)CO
survivor count (T/C endpoint: mean tumor weight (est.), dose: 160.0 mg/kg/injection, schedule: Q01DX009 (ip), vehicle: water, higher T/C = larger tumour): 4 of 8
survivor count (T/C endpoint: median survival time, dose: 80.0 mg/kg/injection, schedule: Q01DX009 (ip), vehicle: water, higher T/C = longer survival): 8 of 8
survivor count (T/C endpoint: median survival time, dose: 160.0 mg/kg/injection, schedule: Q01DX009 (ip), vehicle: water, higher T/C = longer survival): 4 of 8
survivor count (T/C endpoint: median survival time, dose: 320.0 mg/kg/injection, schedule: Q01DX001 (ip), vehicle: other, higher T/C = longer survival): 10 of 10
survivor count (T/C endpoint: median survival time, dose: 640.0 mg/kg/injection, schedule: Q01DX001 (ip), vehicle: other, higher T/C = longer survival): 2 of 10 and 3 of 10
survivor count (T/C endpoint: median survival time, dose: 640.0 mg/kg/injection, schedule: Q01DX001 (ip), vehicle: saline, higher T/C = longer survival): 0 of 10

CCCCCCCCCCCCCS
T/C (T/C endpoint: mean tumor weight, dose: 44.0 mg/kg/injection, schedule: Q01DX011 (ip), vehicle: saline, evaluated on day 12, higher T/C = larger tumour): 127 % of control

O=S1(=O)CCCO1
survivor count (T/C endpoint: mean tumor weight, dose: 80.0 mg/kg/injection, schedule: Q01DX011 (ip), vehicle: saline, higher T/C = larger tumour): 1 of 6

O=C1N[C@@H]([C@H]2CC[C@H](Cl)CN2)C(=O)N[C@H]1[C@H]1CC[C@H](Cl)CN1
survivor count (T/C endpoint: median survival time, dose: 4.0 mg/kg/injection, schedule: Q01DX009 (ip), vehicle: saline, higher T/C = longer survival): 10 of 10
survivor count (T/C endpoint: median survival time, dose: 6.0 mg/kg/injection, schedule: Q01DX009 (ip), vehicle: saline, higher T/C = longer survival): 10 of 10
survivor count (T/C endpoint: median survival time, dose: 10.0 mg/kg/injection, schedule: Q04DX003 (ip), vehicle: saline, higher T/C = longer survival): 10 of 10

CCC1CCC(NC(=O)N(CCF)N=O)CC1 (stereo not drawn)
survivor count (T/C endpoint: median tumor weight (est.), dose: 75.0 mg/kg/injection, schedule: Q01DX001 (ip), vehicle: saline with Tween-80, higher T/C = larger tumour): 2 of 10 on day 18

CCC(=O)O[C@H]1CC[C@H]2[C@@H]3CCC4=CC(=O)CC[C@]4(C)[C@H]3CC[C@]12C
survivor count (T/C endpoint: median survival time, dose: 640.0 mg/kg/injection, schedule: Q02DX009 (ip), vehicle: Klucel (hydroxypropylcellulose) (HPC), higher T/C = longer survival): 10 of 10

COc1ccc2cc3[n+](cc2c1OC)CCc1cc2c(cc1-3)OCO2
survivor count (T/C endpoint: mean tumor weight, dose: 25.0 mg/kg/injection, schedule: Q01DX011 (ip), vehicle: saline, higher T/C = larger tumour): 0 of 6
survivor count (T/C endpoint: mean tumor weight, dose: 50.0 mg/kg/injection, schedule: Q01DX011 (ip), vehicle: saline, higher T/C = larger tumour): 0 of 6
survivor count (T/C endpoint: mean tumor weight, dose: 75.0 mg/kg/injection, schedule: Q01DX011 (ip), vehicle: saline, higher T/C = larger tumour): 0 of 6

O=NN(CCF)C(=O)NC1CCCCC1
T/C [1]: 143 % of control
survivor count [1]: 10 of 10
T/C (T/C endpoint: median survival time, dose: 40.7 mg/kg/injection, schedule: Q01DX001 (ip), vehicle: other, higher T/C = longer survival): 140 % of control
survivor count (T/C endpoint: median survival time, dose: 80.0 mg/kg/injection, schedule: Q01DX001 (ip), vehicle: Klucel (hydroxypropylcellulose) (HPC), higher T/C = longer survival): 0 of 10, 1 of 10, 4 of 10
survivor count (T/C endpoint: median survival time, dose: 81.4 mg/kg/injection, schedule: Q01DX001 (ip), vehicle: other, higher T/C = longer survival): 2 of 10
survivor count (T/C endpoint: median survival time, dose: 162.8 mg/kg/injection, schedule: Q01DX001 (ip), vehicle: other, higher T/C = longer survival): 0 of 10

[Cl][Ni+2][Cl].[NH-]CCN1CC1
survivor count (T/C endpoint: median survival time, dose: 12.5 mg/kg/injection, schedule: Q01DX009 (ip), vehicle: saline, higher T/C = longer survival): 10 of 10
survivor count (T/C endpoint: median survival time, dose: 25.0 mg/kg/injection, schedule: Q01DX009 (ip), vehicle: saline, higher T/C = longer survival): 1 of 10 and 10 of 10

C/C=C(\C)c1cc(=O)c2c(C)cc3c(c2o1)C(=O)c1c(O)c(C2CC(C)(N(C)C)C(O)C(C)O2)cc(C2CC(N(C)C)C(O)C(C)O2)c1C3=O (stereo not drawn)
survivor count (T/C endpoint: median survival time, dose: 1.0 mg/kg/injection, schedule: Q01DX009 (ip), vehicle: Klucel (hydroxypropylcellulose) (HPC), higher T/C = longer survival): 10 of 10
survivor count (T/C endpoint: median survival time, dose: 4.0 mg/kg/injection, schedule: Q01DX009 (ip), vehicle: Klucel (hydroxypropylcellulose) (HPC), higher T/C = longer survival): 10 of 10

O=C1C(=O)c2ccccc2C(O)=C1CC=C(Cl)Cl
survivor count (T/C endpoint: mean tumor weight, dose: 100.0 mg/kg/injection, schedule: Q01DX011 (ip), vehicle: carboxymethylcellulose (CMC), higher T/C = larger tumour): 2 of 6
survivor count (T/C endpoint: mean tumor weight, dose: 100.0 mg/kg/injection, schedule: Q01DX011 (oral), vehicle: carboxymethylcellulose (CMC), higher T/C = larger tumour): 3 of 6
survivor count [2]: 8 of 10
survivor count (T/C endpoint: median survival time, dose: 75.0 mg/kg/injection, schedule: Q01DX009 (ip), vehicle: water, higher T/C = longer survival): 3 of 6
survivor count [3]: 4 of 10 and 5 of 10
survivor count (T/C endpoint: median tumor weight (est.), dose: 50.0 mg/kg/injection, schedule: Q01DX009 (ip), vehicle: Klucel (hydroxypropylcellulose) (HPC), higher T/C = larger tumour): 4 of 10

OCC(Br)CBr (stereo not drawn)
survivor count (T/C endpoint: mean tumor weight, dose: 83.0 mg/kg/injection, schedule: Q01DX011 (ip), vehicle: other, higher T/C = larger tumour): 2 of 6
survivor count (T/C endpoint: mean tumor weight, dose: 125.0 mg/kg/injection, schedule: Q01DX011 (ip), vehicle: other, higher T/C = larger tumour): 0 of 6

C=C(C)[C@@H]1CC[C@]2(CO)CC[C@]3(C)[C@H](CC[C@@H]4[C@@]5(C)CC[C@H](O)C(C)(C)[C@@H]5CC[C@]43C)[C@@H]12
survivor count (T/C endpoint: mean tumor weight, dose: 50.0 mg/kg/injection, schedule: Q01DX011 (ip), vehicle: carboxymethylcellulose (CMC), higher T/C = larger tumour): 3 of 6

O=C1N(Br)C(=O)C(c2ccc(Cl)cc2)(c2ccc(Cl)cc2)N1Br
survivor count [2]: 10 of 10
survivor count [3]: 10 of 10
survivor count (T/C endpoint: median survival time, dose: 200.0 mg/kg/injection, schedule: Q01DX009 (ip), vehicle: Klucel (hydroxypropylcellulose) (HPC), higher T/C = longer survival): 6 of 10

CCCCCCCCCCCCCCCCC(C(=O)O)C(O)(CC(=O)O)C(=O)O (stereo not drawn)
survivor count (T/C endpoint: mean tumor weight, dose: 75.0 mg/kg/injection, schedule: Q01DX011 (ip), vehicle: carboxymethylcellulose (CMC), higher T/C = larger tumour): 0 of 6

NC(C/[N+]([O-])=N/O)C(=O)O (stereo not drawn)
survivor count (T/C endpoint: median survival time, dose: 100.0 mg/kg/injection, schedule: Q01DX010 (ip), vehicle: alkali diluted with saline, higher T/C = longer survival): 6 of 10 on day 57
T/C (T/C endpoint: median survival time, dose: 500.0 mg/kg/injection, schedule: Q01DX001 (ip), vehicle: saline, higher T/C = longer survival): 128 % of control

CCC[CH2][Sn]1([CH2]CCC)[N](S(=O)(=O)c2ccc(C)cc2)c2ccccc2[N]1S(=O)(=O)c1ccc(C)cc1
survivor count (T/C endpoint: median survival time, dose: 12.0 mg/kg/injection, schedule: Q01DX009 (ip), vehicle: Klucel (hydroxypropylcellulose) (HPC), higher T/C = longer survival): 10 of 10

Nc1nncs1
T/C (T/C endpoint: median survival time, dose: 1.56 mg/kg/injection, schedule: Q01DX009 (ip), vehicle: saline with Tween-80, higher T/C = longer survival): 86, 87, 93, 102, 109, 196 % of control
T/C (T/C endpoint: median survival time, dose: 3.12 mg/kg/injection, schedule: Q01DX009 (ip), vehicle: saline with Tween-80, higher T/C = longer survival): 95, 96, 98, 110 (2×), 118 % of control
T/C (T/C endpoint: median survival time, dose: 6.25 mg/kg/injection, schedule: Q01DX009 (ip), vehicle: saline with Tween-80, higher T/C = longer survival): 94, 103, 107, 109, 111, 121 % of control
T/C (T/C endpoint: median survival time, dose: 12.5 mg/kg/injection, schedule: Q01DX009 (ip), vehicle: Klucel (hydroxypropylcellulose) (HPC), higher T/C = longer survival): 94 [8 of 10 alive], 102, 110, 138 % of control
T/C (T/C endpoint: median survival time, dose: 12.5 mg/kg/injection, schedule: Q01DX009 (ip), vehicle: saline with Tween-80, higher T/C = longer survival): 94, 96, 105, 108, 124, 125 % of control
T/C [4]: 100, 126, 142 % of control
survivor count [4]: 10 of 10
T/C (T/C endpoint: median survival time, dose: 25.0 mg/kg/injection, schedule: Q01DX009 (ip), vehicle: saline with Tween-80, higher T/C = longer survival): 104, 107, 112, 121, 122, 187 % of control
survivor count [2]: 9 of 10 (2×) and 10 of 10 (2×)
T/C [5]: 107, 110, 115 [7 of 10 alive], 121, 124, 126 % of control
survivor count [5]: 10 of 10
survivor count [3]: 10 of 10
survivor count (T/C endpoint: median survival time, dose: 100.0 mg/kg/injection, schedule: Q01DX009 (ip), vehicle: saline with Tween-80, higher T/C = longer survival): 8 of 10 and 10 of 10
survivor count (T/C endpoint: median survival time, dose: 200.0 mg/kg/injection, schedule: Q01DX009 (ip), vehicle: saline with Tween-80, higher T/C = longer survival): 9 of 10
survivor count (T/C endpoint: median survival time, dose: 400.0 mg/kg/injection, schedule: Q01DX009 (ip), vehicle: saline with Tween-80, higher T/C = longer survival): 7 of 10, 8 of 10, 10 of 10

N#Cc1ccc(NC(=O)N(CCCl)N=O)cc1
survivor count (T/C endpoint: median tumor weight (est.), dose: 67.0 mg/kg/injection, schedule: Q01DX001 (ip), vehicle: Klucel (hydroxypropylcellulose) (HPC), higher T/C = larger tumour): 2 of 10 on day 14
survivor count (T/C endpoint: median tumor weight (est.), dose: 100.0 mg/kg/injection, schedule: Q01DX001 (ip), vehicle: Klucel (hydroxypropylcellulose) (HPC), higher T/C = larger tumour): 0 of 10 on day 14 and 6 of 10 on day 13
survivor count (T/C endpoint: median tumor weight (est.), dose: 150.0 mg/kg/injection, schedule: Q01DX001 (ip), vehicle: Klucel (hydroxypropylcellulose) (HPC), higher T/C = larger tumour): 0 of 10 on day 14
survivor count (T/C endpoint: median tumor weight (est.), dose: 225.0 mg/kg/injection, schedule: Q01DX001 (ip), vehicle: Klucel (hydroxypropylcellulose) (HPC), higher T/C = larger tumour): 0 of 10 on day 14
survivor count (T/C endpoint: median tumor weight (est.), dose: 338.0 mg/kg/injection, schedule: Q01DX001 (ip), vehicle: Klucel (hydroxypropylcellulose) (HPC), higher T/C = larger tumour): 0 of 10 on day 14
survivor count (T/C endpoint: median tumor weight (est.), dose: 507.0 mg/kg/injection, schedule: Q01DX001 (ip), vehicle: Klucel (hydroxypropylcellulose) (HPC), higher T/C = larger tumour): 0 of 10 on day 14
